These are yes or no findings as the source states them, for the method shown.
Biological target: Ribosomal stalk protein L7/L12 (E. coli) (UniProt P0A7K2)
Experiment: NMR titration; 1H-15N HSQC spectra of [U-15N]-ribosomes upon TPI titration, in vitro, without EF-G; both purified

Protein sequences, listed by entry. Tags and fused reporters are not part of them.
UniProt P00940: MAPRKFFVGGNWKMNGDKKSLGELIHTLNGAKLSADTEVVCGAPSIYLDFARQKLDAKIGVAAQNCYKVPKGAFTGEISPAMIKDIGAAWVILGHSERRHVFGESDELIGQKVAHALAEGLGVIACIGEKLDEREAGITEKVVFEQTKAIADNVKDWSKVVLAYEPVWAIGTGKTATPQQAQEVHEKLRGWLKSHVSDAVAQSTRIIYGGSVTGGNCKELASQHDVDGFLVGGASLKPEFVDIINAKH

Triosephosphate isomerase from G. gallus (from UniProt P00940 1-248) (enzyme)
binding: no binding
